# Literature values in patent US20250213606A1, “MEDICINAL AGENT (EMBODIMENTS) AND DEVICE FOR USING SAME” (priority 2022, published 2025).
# Some of these results come from one statement about several compounds together. At least one compound was matched to its structure with a doubt left.
# Test system: laboratory animals and volunteer testers
# Conditions: State Register of Medicines, Xenon; cited from earlier work
SMILES,content for analgesic effect,content for hypoalgesic effect
[Kr] [krypton],30-40 % by volume,0.2-10 % by volume
"[Xe] [xenon, reference compound]",30-40 % by volume,0.2-10 % by volume
